Reference: paper PMC8274477
No constants are given. Whether binding was seen depends on the method and setting. Some binding calls cover weakened binding; strength is not graded here.

By UniProt entry, the sequences of proteins in these tests, tags left out.
UniProt Q01844: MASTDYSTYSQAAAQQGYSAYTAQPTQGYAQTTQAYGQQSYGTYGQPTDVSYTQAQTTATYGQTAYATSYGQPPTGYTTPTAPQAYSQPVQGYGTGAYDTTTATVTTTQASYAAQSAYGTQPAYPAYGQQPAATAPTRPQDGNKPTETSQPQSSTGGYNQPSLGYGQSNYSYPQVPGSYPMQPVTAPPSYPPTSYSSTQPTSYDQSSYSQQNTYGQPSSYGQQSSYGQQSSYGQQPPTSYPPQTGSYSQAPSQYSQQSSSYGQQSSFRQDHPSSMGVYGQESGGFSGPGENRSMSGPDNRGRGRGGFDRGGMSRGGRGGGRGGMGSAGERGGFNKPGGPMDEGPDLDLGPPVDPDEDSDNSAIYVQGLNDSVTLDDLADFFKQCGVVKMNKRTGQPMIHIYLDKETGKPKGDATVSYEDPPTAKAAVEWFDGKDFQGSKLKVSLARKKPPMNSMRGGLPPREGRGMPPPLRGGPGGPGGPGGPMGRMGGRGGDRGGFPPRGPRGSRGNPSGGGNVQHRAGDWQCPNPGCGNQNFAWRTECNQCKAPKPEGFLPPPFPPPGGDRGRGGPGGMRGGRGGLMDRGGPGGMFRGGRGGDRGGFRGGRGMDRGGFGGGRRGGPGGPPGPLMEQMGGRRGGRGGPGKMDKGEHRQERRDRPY
UniProt Q02127: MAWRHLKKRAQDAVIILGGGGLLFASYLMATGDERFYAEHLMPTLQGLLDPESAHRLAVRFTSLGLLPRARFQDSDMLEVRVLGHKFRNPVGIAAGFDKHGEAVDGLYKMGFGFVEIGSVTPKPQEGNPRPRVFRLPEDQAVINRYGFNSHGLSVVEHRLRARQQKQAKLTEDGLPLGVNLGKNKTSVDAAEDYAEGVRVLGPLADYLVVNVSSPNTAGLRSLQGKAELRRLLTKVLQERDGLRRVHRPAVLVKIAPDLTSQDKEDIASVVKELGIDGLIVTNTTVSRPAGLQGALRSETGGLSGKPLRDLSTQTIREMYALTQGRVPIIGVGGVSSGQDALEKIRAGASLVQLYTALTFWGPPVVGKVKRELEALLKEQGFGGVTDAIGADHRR

Experiments:
Experiment in all cases: peptide or protein array; HuProt human proteome microarray; 5 ug/5 ml biotin-labelled LUBAC or OTULIN in solution, 1 h at room temperature; Cy5-streptavidin, scanned at 635 nm; BSA as negative control; hits: Z-score >= 3 and I_(Mean_Ratio) >= 1.4; both purified
[1] = molecular target: T1, C17orf82 (human) (UniProt Q86X59)
T1 sequence: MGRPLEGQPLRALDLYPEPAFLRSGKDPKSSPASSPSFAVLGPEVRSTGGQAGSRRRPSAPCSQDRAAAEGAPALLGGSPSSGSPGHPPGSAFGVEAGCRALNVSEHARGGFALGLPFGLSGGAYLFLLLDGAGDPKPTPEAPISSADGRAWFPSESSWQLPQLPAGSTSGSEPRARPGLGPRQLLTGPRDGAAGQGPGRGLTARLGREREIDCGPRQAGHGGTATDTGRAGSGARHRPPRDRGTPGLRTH

[2] = molecular target: T2, NUPL2 (human) (UniProt O15504)
T2 sequence: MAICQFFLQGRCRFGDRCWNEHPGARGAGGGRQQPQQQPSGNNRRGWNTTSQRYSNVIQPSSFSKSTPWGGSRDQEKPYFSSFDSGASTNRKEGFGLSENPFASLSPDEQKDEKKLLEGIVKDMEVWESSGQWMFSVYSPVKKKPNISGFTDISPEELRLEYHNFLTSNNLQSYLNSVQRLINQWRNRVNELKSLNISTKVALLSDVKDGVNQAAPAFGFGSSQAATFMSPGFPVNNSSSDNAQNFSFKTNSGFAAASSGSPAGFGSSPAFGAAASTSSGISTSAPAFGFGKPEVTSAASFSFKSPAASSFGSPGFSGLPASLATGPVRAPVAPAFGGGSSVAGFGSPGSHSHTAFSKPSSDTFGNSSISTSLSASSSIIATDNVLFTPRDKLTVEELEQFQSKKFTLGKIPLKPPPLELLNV

[3] = molecular target: EWSR1 (human) (UniProt Q01844)
[4] = molecular target: T3, SAMD4B (human) (UniProt Q5PRF9)
T3 sequence: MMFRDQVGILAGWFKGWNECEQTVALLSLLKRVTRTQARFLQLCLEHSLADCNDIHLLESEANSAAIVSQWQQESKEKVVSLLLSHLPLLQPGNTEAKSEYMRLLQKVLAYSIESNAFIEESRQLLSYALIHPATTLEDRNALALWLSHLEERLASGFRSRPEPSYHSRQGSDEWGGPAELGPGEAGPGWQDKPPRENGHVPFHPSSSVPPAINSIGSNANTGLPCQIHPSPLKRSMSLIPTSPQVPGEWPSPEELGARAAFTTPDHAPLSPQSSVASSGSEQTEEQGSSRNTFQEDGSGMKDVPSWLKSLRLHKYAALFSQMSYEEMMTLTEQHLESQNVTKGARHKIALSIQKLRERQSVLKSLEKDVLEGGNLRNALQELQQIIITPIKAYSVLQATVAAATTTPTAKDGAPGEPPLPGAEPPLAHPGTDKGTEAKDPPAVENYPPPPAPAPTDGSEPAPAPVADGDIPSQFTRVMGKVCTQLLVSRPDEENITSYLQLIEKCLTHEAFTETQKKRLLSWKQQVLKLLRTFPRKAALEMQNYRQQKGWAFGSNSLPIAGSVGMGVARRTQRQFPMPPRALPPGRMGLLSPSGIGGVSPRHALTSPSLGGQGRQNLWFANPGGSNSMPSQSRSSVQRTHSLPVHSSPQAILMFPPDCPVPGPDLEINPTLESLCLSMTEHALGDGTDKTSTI

[5] = molecular target: T4, CRYZ (human) (UniProt Q08257)
T4 sequence: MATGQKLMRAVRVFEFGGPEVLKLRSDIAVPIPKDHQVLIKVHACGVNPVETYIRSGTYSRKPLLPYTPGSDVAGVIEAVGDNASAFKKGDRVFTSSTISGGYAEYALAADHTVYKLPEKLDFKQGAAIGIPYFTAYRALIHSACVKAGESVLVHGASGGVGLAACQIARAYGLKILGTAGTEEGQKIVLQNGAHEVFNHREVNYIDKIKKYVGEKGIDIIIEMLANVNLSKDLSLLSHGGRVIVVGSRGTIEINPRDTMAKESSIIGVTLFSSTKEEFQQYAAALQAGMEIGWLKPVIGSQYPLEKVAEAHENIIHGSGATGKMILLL

[6] = molecular target: DHODH (human) (UniProt Q02127)

binding [1]: binds
binding [2]: binds
binding [3]: binds
binding [4]: binds
binding [5]: binds
binding [6]: binds
Substance: linear ubiquitin chain assembly complex (LUBAC), purified as HIS-tagged HOIP with the subunit HOIL-1, biotin-labelled (from UniProt Q96EP0 1-1072; Q9BYM8 1-510)
